These are yes or no findings as the source states them, for the method shown. Some binding calls cover weakened binding; strength is not graded here. For part of these data: Sequences can lack the tags named with a protein.
T1: R &D hRGMc-His (human, UniProt Q6ZVN8 36-400)
T1 construct: Bought (R&D) His-tagged human RGMc; also called human RGMc; not shown: His tag
T1 sequence: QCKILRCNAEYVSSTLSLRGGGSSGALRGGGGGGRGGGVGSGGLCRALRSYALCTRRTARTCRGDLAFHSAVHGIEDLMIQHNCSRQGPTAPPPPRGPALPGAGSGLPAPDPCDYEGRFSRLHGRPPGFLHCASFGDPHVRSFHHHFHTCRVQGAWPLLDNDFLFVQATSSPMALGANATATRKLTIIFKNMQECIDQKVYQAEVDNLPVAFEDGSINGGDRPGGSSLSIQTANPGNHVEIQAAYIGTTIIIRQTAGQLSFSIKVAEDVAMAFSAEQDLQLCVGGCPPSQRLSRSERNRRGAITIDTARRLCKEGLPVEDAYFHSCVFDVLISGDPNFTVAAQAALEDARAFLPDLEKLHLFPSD

T2: biotin hRGMa (human) (UniProt Q96B86)
T2 sequence (chain, biotinylated): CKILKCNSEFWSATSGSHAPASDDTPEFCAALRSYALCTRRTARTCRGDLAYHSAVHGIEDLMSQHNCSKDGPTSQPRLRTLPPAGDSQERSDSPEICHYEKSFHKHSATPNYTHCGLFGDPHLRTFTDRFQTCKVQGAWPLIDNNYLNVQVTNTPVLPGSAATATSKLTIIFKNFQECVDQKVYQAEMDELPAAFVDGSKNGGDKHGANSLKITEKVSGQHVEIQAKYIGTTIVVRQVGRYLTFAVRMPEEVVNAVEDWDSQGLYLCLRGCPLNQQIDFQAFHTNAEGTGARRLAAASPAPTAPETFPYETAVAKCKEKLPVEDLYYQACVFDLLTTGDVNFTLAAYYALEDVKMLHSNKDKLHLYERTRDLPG


Experiments:
[1] = target: T1, R &D hRGMc-His; test: human RGMc direct ELISA
[2] = target: T1, R &D hRGMc-His; test: R&D hRGMc-His ELISA
[3] = target: T2, biotin hRGMa (human); test: hRGMa binding ELISA
[4] = target: T2, biotin hRGMa (human); test: indirect ELISA: antibody captured by anti-human Fc, biotin hRGMa titrated

binding [1] | binding [2] | binding [3] | binding [4] | Binder
binds | binds |  |  | h5F9.AM8 (antibody, V domains shown, also called RGMA-h5F9AM.8; RGMA-h5F9pJP297/pJP 298 hIgG1/K mut) VH: EVQLVESGGGLVQPGGSLRLSCAASGFTFSNYGMNWIRQAPGKGLEWIGMIYYDSSEKHYADSVKGRFTISRDNSKNTLYLQMNSLRAEDTAVYYCAKGTTPDYWGQGTMVTVSS VL: DVVLTQSPLSLPVTLGQPASISCRSSQSLEESDGYTFLHWFQQRPGQSPRLLIYEVSTRFSGVPDRFSGSGSGTDFTLKISRVEAEDVGVYYCFQATHDPLTFGQGTKLEIK
binds | binds | binds | binds | h5F9.AM9 (antibody, V domains shown, also called RGMA-h5F9AM.9; RGMA-h5F9pJP297/pJP 299 hIgG1/K mut) VH: EVQLVESGGGVVQPGRSLRLSCAASGFTFSNYGMNWVRQAPGKGLEWVAMIYYDSSEKHYADSVKGRFTISRDNSKNTLYLQMNSLRAEDTAVYYCARGTTPDYWGQGTMVTVSS VL: DVVLTQSPLSLPVTLGQPASISCRSSQSLADSDGDTFLHWFQQRPGQSPRLLIYAVSHRFSGVPDRFSGSGSGTDFTLKISRVEAEDVGVYYCFQATHDPVTFGQGTKLEIK
